Earlier results, collected in article PMC6723713, “Purification, Characterization and Evaluation of Inhibitory Mechanism of ACE Inhibitory Peptides from Pearl Oyster (Pinctada fucata martensii) Meat Protein Hydrolysate” (Marine Drugs, 2019).
Read-outs that look alike come from different tables or passages of the source. Structures were worked out from names or drawings and are uncertain.

Protein sequences, listed by entry. Tags and fused reporters are not part of them. Residues count along the entry.
UniProt P12822, 34-1310 limits assumed: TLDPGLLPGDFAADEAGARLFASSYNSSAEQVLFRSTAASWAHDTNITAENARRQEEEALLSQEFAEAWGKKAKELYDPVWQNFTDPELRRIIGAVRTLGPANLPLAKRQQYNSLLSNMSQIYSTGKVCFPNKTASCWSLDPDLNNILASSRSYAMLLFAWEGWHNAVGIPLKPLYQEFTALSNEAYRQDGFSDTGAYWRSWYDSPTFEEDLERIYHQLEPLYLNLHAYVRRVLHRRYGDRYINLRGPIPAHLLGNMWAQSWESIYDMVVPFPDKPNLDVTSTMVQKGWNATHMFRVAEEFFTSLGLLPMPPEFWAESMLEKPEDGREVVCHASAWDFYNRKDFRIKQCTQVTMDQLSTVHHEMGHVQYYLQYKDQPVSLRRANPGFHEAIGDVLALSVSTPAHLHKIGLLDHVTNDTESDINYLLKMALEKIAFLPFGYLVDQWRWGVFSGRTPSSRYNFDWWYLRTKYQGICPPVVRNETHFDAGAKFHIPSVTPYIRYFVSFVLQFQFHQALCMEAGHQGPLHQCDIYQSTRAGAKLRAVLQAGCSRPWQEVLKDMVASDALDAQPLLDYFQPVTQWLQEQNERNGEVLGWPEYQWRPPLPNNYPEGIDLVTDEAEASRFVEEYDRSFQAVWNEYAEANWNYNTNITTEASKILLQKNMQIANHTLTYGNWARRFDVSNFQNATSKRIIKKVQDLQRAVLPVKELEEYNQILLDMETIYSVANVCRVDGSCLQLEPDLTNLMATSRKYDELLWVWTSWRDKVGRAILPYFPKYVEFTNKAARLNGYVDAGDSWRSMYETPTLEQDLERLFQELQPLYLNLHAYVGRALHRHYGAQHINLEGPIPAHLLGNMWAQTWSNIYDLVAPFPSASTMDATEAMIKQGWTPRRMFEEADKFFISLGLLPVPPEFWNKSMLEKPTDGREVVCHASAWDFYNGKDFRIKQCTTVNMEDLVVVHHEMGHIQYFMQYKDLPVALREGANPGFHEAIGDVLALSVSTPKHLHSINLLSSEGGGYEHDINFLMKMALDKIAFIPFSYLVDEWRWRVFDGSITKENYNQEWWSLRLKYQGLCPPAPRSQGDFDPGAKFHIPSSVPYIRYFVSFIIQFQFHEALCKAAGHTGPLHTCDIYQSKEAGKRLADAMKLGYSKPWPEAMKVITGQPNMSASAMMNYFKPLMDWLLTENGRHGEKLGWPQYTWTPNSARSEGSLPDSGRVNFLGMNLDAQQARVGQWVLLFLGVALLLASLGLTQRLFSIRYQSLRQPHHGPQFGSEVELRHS

Biological target: ACE (Oryctolagus cuniculus, UniProt P12822)
Conditions: cited from earlier work
Source text: Table 2 Summary of ACE inhibitory peptides having similar structure with purified peptides. | column: IC50 (μM) || Table 3 Inhibition pattern of ACE inhibitory peptides derived from marine products. | column: Inhibition Pattern; IC50 (μM)

| SMILES | IC50 (ref [36]) [µM] | Inhibition Pattern (ref [36]) | IC50 (ref [28]) [µM] |
| --- | --- | --- | --- |
| CC(C)[C@H](N)C(=O)N[C@@H](CCCCN)C(=O)N[C@@H](CCCCN)C(=O)O | 1040 | Competitive |  |
| CC(C)[C@H](N)C(=O)N[C@@H](CCCCN)C(=O)N1CCC[C@H]1C(=O)O | 3.7 | Competitive |  |
| CC[C@H](C)[C@H](N)C(=O)NCC(=O)N[C@@H](Cc1c[nH]c2ccccc12)C(=O)O |  |  | < 10 |
| CC(C)C[C@H](NC(=O)[C@H](CC(C)C)NC(=O)[C@@H](N)Cc1c[nH]cn1)C(=O)O |  |  | 22.2 |
| C[C@H](N)C(=O)NCC(=O)N[C@@H](Cc1c[nH]c2ccccc12)C(=O)O |  |  | < 10 |
| NCC(=O)N[C@@H](Cc1c[nH]c2ccccc12)C(=O)O |  |  | 30 |
